Consider four molecules from paper doi:10.1101/2022.02.15.480428.

The chains behind the UniProt entries cited, without tags or fusion partners. Where a name states a change or a piece, a line headed by the entry shows the natural chain unless it says otherwise. Residues count along the entry.
UniProt P48727: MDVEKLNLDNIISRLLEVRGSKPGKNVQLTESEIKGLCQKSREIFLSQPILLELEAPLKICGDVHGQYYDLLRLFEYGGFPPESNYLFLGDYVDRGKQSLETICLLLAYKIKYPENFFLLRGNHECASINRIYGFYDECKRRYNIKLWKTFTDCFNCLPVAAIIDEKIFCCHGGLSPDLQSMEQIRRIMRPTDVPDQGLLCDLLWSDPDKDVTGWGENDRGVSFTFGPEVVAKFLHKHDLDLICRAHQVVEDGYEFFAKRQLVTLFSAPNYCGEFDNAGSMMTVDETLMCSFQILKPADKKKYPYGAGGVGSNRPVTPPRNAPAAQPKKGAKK
3xFLAG:GFP:GSP-2(Δ13): residues 1-320 of P48727
UniProt P62136: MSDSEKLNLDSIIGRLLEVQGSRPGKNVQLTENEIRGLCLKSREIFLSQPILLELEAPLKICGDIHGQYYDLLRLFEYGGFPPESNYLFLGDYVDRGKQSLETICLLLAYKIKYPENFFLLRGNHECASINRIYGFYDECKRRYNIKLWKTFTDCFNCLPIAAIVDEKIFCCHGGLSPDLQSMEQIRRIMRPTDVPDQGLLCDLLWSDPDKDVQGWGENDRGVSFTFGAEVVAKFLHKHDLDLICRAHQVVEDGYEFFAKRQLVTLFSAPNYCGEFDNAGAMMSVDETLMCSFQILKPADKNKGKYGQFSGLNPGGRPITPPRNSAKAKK

Results are given in words; binding and its absence hold for the method and conditions named. In cells and extracts the contact can be indirect. Some binding calls cover weakened binding; strength is not graded here. Where a sequence is shown, tags or fusion partners need not be part of it.

Experiment [1] concerns the target T1, H. sapiens iASPP C-terminal domains (amino acids 602-828) with HA-tag and HaloTag (H. sapiens) (UniProt Q8WUF5).
T1 sequence: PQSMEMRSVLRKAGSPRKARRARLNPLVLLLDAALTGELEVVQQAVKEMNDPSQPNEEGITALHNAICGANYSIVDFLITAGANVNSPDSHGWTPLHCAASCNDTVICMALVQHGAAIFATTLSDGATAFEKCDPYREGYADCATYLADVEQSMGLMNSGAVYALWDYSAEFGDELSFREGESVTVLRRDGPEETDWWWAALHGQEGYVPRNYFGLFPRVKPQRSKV
As to the kind of experiment: pull-down.

Experiment [2] has as its target 3xFLAG:GFP:GSP-2(Δ13) (C. elegans) (UniProt P48727). As to the kind of experiment: co-IP.
Experiment [3] concerns the target GSP-2 endogenously tagged on its N-terminus with 3XFLAG:GFP (C. elegans) (UniProt P48727). As to the kind of experiment: co-IP.

Regarding “PP1α (from UniProt P62136 1-330) (enzyme)”, in experiment [1], the binding result is given as “binds”.

B1: APE-1 endogenously tagged on its C-terminus with myc-tag:HaloTag (protein, UniProt Q9XVN3 1-769)
chain: MVTTSSGGGIGYPANNGVTQVSLIHSSDSVRTVSTAPIYRPTSSMASTMAHKSSTAPFISANQRMSKPPVRVVAQPPPPHPQALSQQYHQQNPMMMYSAPNTRPHVIPTMQVQPTMAAQIKRNNPVNAQFQNPSEMIADYGVKPQSVEMVQRVRAVRRQVADEETELRRLRELEHETAQLQNKNYGRERELNVQGSMLKEAQLELRNASMRAQSLNKHLEEMYRRRQTAAAAALVEQRKMQQHQILLARAANQVSTQEVIRPRASVEPFQVNNTQQQQPSPQMMKSEEFSEKRDLNGQTGSYDAIDGSGDHQKIPTEPSYLAPCKENQQKYSELSKMASTDPHSNHSSPSTSSQKAPTLITFSPPSFEQKINSSTMTRDSPFVERPTSFGDSLDESRLRSGKTDLVSLRSDSLKATKRRSWAASEGTSMSEAEMIHRLLDEQRRGRSHFIPQLPTSQEEPSAITSETYAEEVVNSESKQVATSSDSTNNLELPTEQMVLGSDTTTEEDASSCSTRSDDGQNLEMEVAIERRTVKGILRRPNEKMNKGRIEFDPLALLLDAALEGELDLVRSSASKLTDVSQANDEGITALHNAICAGHYEIVRFLIENDADVNAQDSDGWTPLHCAASCNNLPMVRQLVEGGGCVLASTLSDMETPVEKCEEDEDGYDGCLKYLSAAHNSTGSINTGKVYAAYGYEAAFEDELSFDAGDELTVIEKDKVDKNWWTCEKNNGEKGQVPRTYLALYPSLKYRKKLNFVMFDLPLESNNNVE
Consider B1, for which the binding entry in experiment [2] was “no binding”; in experiment [3] it was “binds”.

B2: APE-1(H591Y):HT (protein, UniProt Q9XVN3 1-769)
chain: MVTTSSGGGIGYPANNGVTQVSLIHSSDSVRTVSTAPIYRPTSSMASTMAHKSSTAPFISANQRMSKPPVRVVAQPPPPHPQALSQQYHQQNPMMMYSAPNTRPHVIPTMQVQPTMAAQIKRNNPVNAQFQNPSEMIADYGVKPQSVEMVQRVRAVRRQVADEETELRRLRELEHETAQLQNKNYGRERELNVQGSMLKEAQLELRNASMRAQSLNKHLEEMYRRRQTAAAAALVEQRKMQQHQILLARAANQVSTQEVIRPRASVEPFQVNNTQQQQPSPQMMKSEEFSEKRDLNGQTGSYDAIDGSGDHQKIPTEPSYLAPCKENQQKYSELSKMASTDPHSNHSSPSTSSQKAPTLITFSPPSFEQKINSSTMTRDSPFVERPTSFGDSLDESRLRSGKTDLVSLRSDSLKATKRRSWAASEGTSMSEAEMIHRLLDEQRRGRSHFIPQLPTSQEEPSAITSETYAEEVVNSESKQVATSSDSTNNLELPTEQMVLGSDTTTEEDASSCSTRSDDGQNLEMEVAIERRTVKGILRRPNEKMNKGRIEFDPLALLLDAALEGELDLVRSSASKLTDVSQANDEGITALYNAICAGHYEIVRFLIENDADVNAQDSDGWTPLHCAASCNNLPMVRQLVEGGGCVLASTLSDMETPVEKCEEDEDGYDGCLKYLSAAHNSTGSINTGKVYAAYGYEAAFEDELSFDAGDELTVIEKDKVDKNWWTCEKNNGEKGQVPRTYLALYPSLKYRKKLNFVMFDLPLESNNNVE
B2: in experiment [3], the binding result is recorded as “binds weakly”.

B3: APE-1(N583K):HT (protein, UniProt Q9XVN3 1-769)
chain: MVTTSSGGGIGYPANNGVTQVSLIHSSDSVRTVSTAPIYRPTSSMASTMAHKSSTAPFISANQRMSKPPVRVVAQPPPPHPQALSQQYHQQNPMMMYSAPNTRPHVIPTMQVQPTMAAQIKRNNPVNAQFQNPSEMIADYGVKPQSVEMVQRVRAVRRQVADEETELRRLRELEHETAQLQNKNYGRERELNVQGSMLKEAQLELRNASMRAQSLNKHLEEMYRRRQTAAAAALVEQRKMQQHQILLARAANQVSTQEVIRPRASVEPFQVNNTQQQQPSPQMMKSEEFSEKRDLNGQTGSYDAIDGSGDHQKIPTEPSYLAPCKENQQKYSELSKMASTDPHSNHSSPSTSSQKAPTLITFSPPSFEQKINSSTMTRDSPFVERPTSFGDSLDESRLRSGKTDLVSLRSDSLKATKRRSWAASEGTSMSEAEMIHRLLDEQRRGRSHFIPQLPTSQEEPSAITSETYAEEVVNSESKQVATSSDSTNNLELPTEQMVLGSDTTTEEDASSCSTRSDDGQNLEMEVAIERRTVKGILRRPNEKMNKGRIEFDPLALLLDAALEGELDLVRSSASKLTDVSQAKDEGITALHNAICAGHYEIVRFLIENDADVNAQDSDGWTPLHCAASCNNLPMVRQLVEGGGCVLASTLSDMETPVEKCEEDEDGYDGCLKYLSAAHNSTGSINTGKVYAAYGYEAAFEDELSFDAGDELTVIEKDKVDKNWWTCEKNNGEKGQVPRTYLALYPSLKYRKKLNFVMFDLPLESNNNVE
For B3, in experiment [3], the binding result is reported as “binds weakly”.
